In paper doi:10.1101/843383:
No constants are given. Whether binding was seen depends on the method and setting. In cells and extracts the contact can be indirect. A result given as binding can be weak or reduced; the word gives no strength. For part of these data: Sequences can lack the tags named with a protein.

Amino acid sequences for entries named in this document (tags omitted). A change or cut given only in a name is not applied to a line headed by its entry.
UniProt P07548: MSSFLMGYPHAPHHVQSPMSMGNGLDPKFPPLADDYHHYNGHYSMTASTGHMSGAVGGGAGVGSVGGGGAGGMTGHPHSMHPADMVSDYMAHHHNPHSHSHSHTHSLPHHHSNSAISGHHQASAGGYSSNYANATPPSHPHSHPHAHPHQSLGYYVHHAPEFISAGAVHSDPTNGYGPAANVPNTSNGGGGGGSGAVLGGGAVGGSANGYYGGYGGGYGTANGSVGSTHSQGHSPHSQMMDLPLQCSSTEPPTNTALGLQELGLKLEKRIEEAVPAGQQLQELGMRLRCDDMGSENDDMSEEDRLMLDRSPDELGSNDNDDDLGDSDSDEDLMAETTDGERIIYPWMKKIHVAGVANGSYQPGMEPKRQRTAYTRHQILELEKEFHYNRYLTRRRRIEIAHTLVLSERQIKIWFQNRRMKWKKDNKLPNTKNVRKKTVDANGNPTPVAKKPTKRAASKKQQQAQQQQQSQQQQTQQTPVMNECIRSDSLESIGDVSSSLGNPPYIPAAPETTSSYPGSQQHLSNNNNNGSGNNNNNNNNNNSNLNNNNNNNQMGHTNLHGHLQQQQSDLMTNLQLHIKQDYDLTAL
UniProt Q9TVM2: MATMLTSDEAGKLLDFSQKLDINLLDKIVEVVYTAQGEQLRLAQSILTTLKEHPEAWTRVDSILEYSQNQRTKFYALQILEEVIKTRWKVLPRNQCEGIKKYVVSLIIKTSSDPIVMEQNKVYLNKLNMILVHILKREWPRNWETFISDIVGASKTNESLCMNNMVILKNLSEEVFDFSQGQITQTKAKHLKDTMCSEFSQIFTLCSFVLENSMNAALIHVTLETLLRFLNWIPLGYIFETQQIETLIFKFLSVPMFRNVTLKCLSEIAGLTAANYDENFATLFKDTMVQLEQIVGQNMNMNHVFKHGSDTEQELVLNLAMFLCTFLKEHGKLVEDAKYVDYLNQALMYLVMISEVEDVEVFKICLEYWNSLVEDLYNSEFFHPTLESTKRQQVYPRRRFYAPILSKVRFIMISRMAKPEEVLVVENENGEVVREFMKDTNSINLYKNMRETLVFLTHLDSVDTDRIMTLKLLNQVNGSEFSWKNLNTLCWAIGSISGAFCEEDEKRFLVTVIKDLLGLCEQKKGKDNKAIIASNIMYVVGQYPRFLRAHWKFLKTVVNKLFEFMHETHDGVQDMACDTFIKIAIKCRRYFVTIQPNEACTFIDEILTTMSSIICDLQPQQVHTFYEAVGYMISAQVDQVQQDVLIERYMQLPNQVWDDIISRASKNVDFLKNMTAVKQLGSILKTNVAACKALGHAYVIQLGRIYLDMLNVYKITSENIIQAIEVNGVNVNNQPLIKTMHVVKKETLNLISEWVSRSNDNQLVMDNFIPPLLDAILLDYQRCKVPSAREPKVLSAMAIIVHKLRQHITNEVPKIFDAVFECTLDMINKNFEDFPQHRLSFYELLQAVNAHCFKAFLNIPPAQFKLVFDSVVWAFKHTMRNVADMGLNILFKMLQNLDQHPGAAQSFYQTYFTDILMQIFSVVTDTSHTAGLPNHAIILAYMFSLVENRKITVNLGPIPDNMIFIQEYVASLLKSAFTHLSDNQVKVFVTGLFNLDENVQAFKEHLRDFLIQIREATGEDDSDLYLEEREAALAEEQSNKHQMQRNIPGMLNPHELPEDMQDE

B1: Flag-Exd (protein, UniProt P40427 1-376)
chain: MEDPNRMLAHTGGMMAPQGYGLSGQDDGQNAGSENEVRKQKDIGEILQQIMSISEQSLDEAQARKHTLNCHRMKPALFSVLCEIKEKTVLSIRNTQEEEPPDPQLMRLDNMLIAEGVAGPEKGGGGAAAASAAAASQGGSLSIDGADNAIEHSDYRAKLAQIRQIYHQELEKYEQACNEFTTHVMNLLREQSRTRPITPKEIERMVQIIHKKFSSIQMQLKQSTCEAVMILRSRFLDARRKRRNFSKQASEILNEYFYSHLSNPYPSEEAKEELARKCGITVSQVSNWFGNKRIRYKKNIGKAQEEANLYAAKKAAGASPYSMAGPPSGTTTPMMSPAPPQDSMGYPMGSGGYDQQQPYDNSMGGYDPNLHQDLSP

Legend:
[1] = molecular target: VN-Dfd^HX (HX-mutated Deformed fused to the N-terminal fragment of Venus) (Drosophila) (UniProt P07548); assay: split reporter
[2] = molecular target: GST-Ubx wild type (Drosophila); assay: pull-down
[3] = molecular target: GST-Ubx NES-mutated (Drosophila); assay: pull-down

Molecule | binding [1] | binding [2] | binding [3]
VC-Emb (Embargoed fused to the C-terminal fragment of Venus), in embryos (from UniProt Q9TVM2 1-1063) | binds |  | 
B1 |  | binds | binds
